## Results of single-concentration screens

The values are deposited in ChEMBL (CHEMBL3988442, “University of Dundee, Small-Polar-MMV Screening Library” (2021)).

Values are the deposited “Percent Effect”, in %. The record does not define 0% and 100%; most values in the screen are far below 50% and negative numbers occur (in some assays of this library far below -100). The compounds are a random part of those screened. Two or more numbers in one place are separate tests of the same structure; such repeats can differ widely. A dash means the value is not listed here; it may have been measured.

T. brucei: 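Whole-parasite assay of Trypanosoma brucei over 72 hours; the read-out is not stated. Compounds at 30 µM. Higher reads as stronger inhibition (inferred: compounds with an IC50 in retests scored well above the rest). Values scatter widely below zero; nearly all retest evidence comes from the higher of the two concentrations used. Size under these conditions: about 64,000 compounds, about 940 of them at 50% or above in at least one test.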
Leishmania in macrophages: 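Cell assay of Leishmania donovani living inside macrophages; the read-out is not stated. Tested at 30 µM. Direction is inferred from retests: higher values go with stronger inhibition. Size under these conditions: about 69,000 compounds, about 1,000 of them at 50% or above in at least one test.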
Toxoplasma: 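Assay of Toxoplasma gondii numbers, read through their beta-galactosidase reporter with a colour substrate. Concentration: 10 µM. Higher reads as fewer parasites (inferred from which compounds were picked for retests). About 67,000 compounds were tested under these conditions; 0.38% (about 260) showed 50% or more at least once.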

Compound	T. brucei	Leishmania in macrophages	Toxoplasma
CC(C(=O)N1CCOCC1)n1nc(-c2cccs2)cc(N)c1=O (centres undefined)	-10.31	-4.041	17.28
Cc1cc(-c2nn(C)c(Cl)c2CN2CCOCC2CC(N)=O)no1 (centres undefined)	-38.19	-3.064	-6.672
Cc1ccccc1CC(C)(C)NC(=O)CCOc1cccc(C(N)=O)c1	-40.29	-1.373	4.371
Cc1ccc(O)c(C(=O)N2CCOCC2c2c(C)n[nH]c2C)c1 (centres undefined)	-3.958	17.69	-3.208
CCOc1ccc(NC(=O)c2[nH]c(C)cc2C)cc1CO	-31.43	-20.17	0.4315
O=C(NCCc1nccs1)c1cn(CCN2CCNCC2)nn1	-42.34	-6.215	-1.34
O=C(NCc1cccs1)C1CCN(c2cc(-n3ccnc3)ncn2)CC1	2.342	9.061 & 12.24	0
CCS(=O)(=O)N1CCC(c2nccn2Cc2ccccn2)CC1	-14.3	-3.326	2.308
[H][C@@]12CS(=O)(=O)C[C@]1([H])N(Cc1ccc3ccccc3c1)CCN2CC1CC1	-9.127	10.07	6.233
CC(C)Oc1cccc(CN2CCC(c3n[nH]c4ncccc34)CC2)c1	33.49	-3.157	-1.751
CC(C)(C)NC(=O)N1CCCn2nc(C(=O)Nc3ccccc3)cc2C1	-11.03	-9.181	3.235
Cc1csc(C(C)(C)NCC(=O)N2CCCC(C(N)=O)C2)n1 (centres undefined)	-39.19	16.26	6.305
Cn1cc(C2(C)CN(C(=O)Nc3ccccc3F)CCO2)cn1 (centres undefined)	-19.62	35.74	2.185
COCCN1C(=O)CC[C@]12CC[C@@H](NCc1cccc(C)n1)CC2.O=C(O)C(F)(F)F	-30.85	-9.238 & -1.537	-11.53
CCN(C(c1cccnc1)c1ccc(F)c(F)c1)S(C)(=O)=O (centres undefined)	-37.58	13.54	2.183
COCCC(=O)N1CCCC1c1nccc(C)n1 (centres undefined)	17.37	11.84	-10.32
Cc1ccccc1OCCC(=O)N1CCCC(n2cncn2)C1 (centres undefined)	15.39	13.84	-2.18
O=C(NCCN1CCCCC1=O)C1CCC(=O)N(C2CCCC2)C1 (centres undefined)	-0.7845	-7.433	-4.792
O=C(O)C(F)(F)F.O=C(O)C(F)(F)F.[H][C@@]12CCCO[C@]1([H])[C@H](Nc1ccccn1)CN(Cc1c(C)noc1C)C2	-13.94	3.414	10.4
Cc1nc(CNC(=O)Nc2cc(C(F)(F)F)c[nH]c2=O)cs1	-27.2	19.38	-30.85
COc1ccc(OC)c(CNCc2c(C)nc3sc(C)cn23)c1	-20	0.5531	6.871
O=C(c1cn(CC(=O)N2CCCCCC2)c2ccccc12)C1CC1	0.9208	-2.278	8.228
[H][C@@]12CCN(C(=O)c3cccn3C)CC[C@@]1([H])N(CCN(C)C)CCO2	-36.39	4.277	-4.216
CCOC(=O)N1CCN(CC(=O)Nc2nnc(CC)s2)CC1	-3.119	23.54	4.357
O=C(c1cc(-c2cccnc2)[nH]n1)N1CCCC(Cc2ccccn2)C1 (centres undefined)	-6.432	7.302	8.843
CS(=O)(=O)NC1CC2(CCN(CCF)CC2)Oc2ccccc21.O=C(O)C(F)(F)F (centres undefined)	-39.16	-7.876	24.73
CCOc1ccc(CN(CCC#N)CCN2CCOCC2)cc1OC	-8.954	-8.853	-1.442
O=C(c1cc(F)cc(F)c1)N1CCC2(CC1)CC2	-15.15	23.59	-3.108
O=C(NCC(O)c1ccc(F)cc1F)c1cccc(F)c1 (centres undefined)	-45.41	7.596	-7.271
N#Cc1ccc(CNCC2CCN(CCO)CC2)cc1	-75.81	18.87	-2.408
Cc1cc(N2CCc3cncnc3C2)n2nc(C(F)(F)F)nc2n1	-22.1	0.1524	6.721
CCC(C(=O)Nc1ccc2c(C)n[nH]c2c1)N1CCCC1=O (centres undefined)	6.301	-15.44	16.29
CN1CCCC1CCn1ccnc1-c1nc(-c2ccccc2)no1 (centres undefined)	-8.098	9.004	-3.333
CCC(=O)N(CCC(=O)O)Cc1ccc(F)c(F)c1	-13.22	17.15	-2.521
CCc1noc(CN(CC(=O)N2CCCCC2)c2cccc(C)c2)n1	15.92	15.3	6.152
CC(C)Cc1noc(CNc2cccc(-c3nnnn3C)c2)n1	0.1496	2.7	2.652
O=C(C1CCOCC1)N(CCc1ccccc1)C1CCOC1 (centres undefined)	-38.08	10.81	2.336
CC(CNC(=O)c1c[nH]nn1)Oc1ccc(Cl)cc1 (centres undefined)	-31.52	-48.71	2.301
O=C(CCc1ccccc1)C1CCCN(C(=O)c2cncc(Cl)c2)C1 (centres undefined)	-5.454	15.54	-27
CCc1ccc(C(=O)N2CCC(Nc3ccc(C)nn3)CC2)o1	-1.184	20.49	-2.552
N#Cc1c(Cl)nsc1NCC1(c2ccccc2)CCC1	100.1	91.2	79.2
CCn1nnc2c1C(COCCN(C)C)CN(S(=O)(=O)CC)C2.O=C(O)C(F)(F)F (centres undefined)	-41.36	5.819 & -6.135	9.386
[H][C@@]12CCN(S(=O)(=O)CCC)C[C@]1(c1nnc(C)o1)CCO2	-10.4	-7.343	3.108
CS(=O)(=O)N1CCOC(CNC(=O)c2cccc(C#N)c2)C1 (centres undefined)	2.171	-5.677	-9.316
COc1cccn(CC(=O)N(C)CCC2CCOCC2)c1=O	-21.28	-7.641	-33.98
[H][C@@]12CCCN1C[C@@H](CCSC)N(Cc1cnn(CCC)c1C)C2	1.889	-6.249	-8.464
O=C(O)C(F)(F)F.[H][C@@]12CN(Cc3ccco3)CCO[C@]1([H])CN(C(=O)c1cocn1)C2	-36.58	20.06	3.093
COCCN1CCC2(CC1)CN(C(=O)c1ccco1)CCO2.O=C(O)C(F)(F)F	-13.58	-1.105	-13.94
Cc1nnc(NCCC(=O)N(C)Cc2ccccc2)c(C#N)c1C	5.261	20.31	8.409
CNc1ncc(C(=O)N2CCCC(CO)(CCCOC)C2)cn1 (centres undefined)	-24.44	9.834	-12.29
Nc1nccnc1C1CN(Cc2ccc(OCC(=O)O)cc2)CCO1 (centres undefined)	-	1.463	10.01
CN1CCOC(CNCCc2ccccn2)C1 (centres undefined)	-34.7	39.07	-
CCN(CC)C(=O)Cn1cc(C(=O)NCCc2nc(C)c(C)s2)nn1	-26.03	17.89	7.16
Cc1ccc2c(n1)N(C)CCN(Cc1ccco1)C2.O=C(O)C(F)(F)F.O=C(O)C(F)(F)F	-37.69	-37.8 & -2.012	-3.024
CN1CCCc2cc(-c3cncn3CCNC3CCS(=O)(=O)C3)ccc21.Cl (centres undefined)	-	8.875	-
CN(C)c1nc2ncc(Cl)cc2cc1C#N	-	1.286	12.35
CC(=O)NCC(=O)NCC1(O)CCN(c2cnccn2)C1 (centres undefined)	-15.75	-10.69	-31.91
Cc1nnc(CN(C)CC(=O)N2CCCC(C(F)(F)F)C2)n1C (centres undefined)	-48.31	1.829	-26.22
Cc1ccccc1C(CC(=O)NCc1nnc(N)s1)c1ccccc1 (centres undefined)	-16.54	-2.154	-10.96
CCCN(Cc1cnn(C)c1)S(=O)(=O)c1ccc(F)c(C#N)c1	-27.23	13.43	-1.166
CC1=Nc2c(c(=O)[nH]n2C2CCCCC2)C(c2ccc(C(=O)O)cc2)S1 (centres undefined)	-20.92 & 11.43	-13.61 & 4.882	13.48
Cc1cc(C)nc(C2CCCN2c2ccnc(C)n2)n1 (centres undefined)	-20.49	14.13 & 29.45	19.42
O=C(O)C(F)(F)F.[H][C@@]12OCCN(C(=O)c3ccc(C)o3)[C@@]1([H])CC[C@H]2OCCN(C)C	-103.5	-18.34	-4.282
Cc1ncc2c(n1)CN(CCCc1ccccc1)CC2	13.17	36.44	-8.599
CCC1CN(CCCO)c2ccccc2O1 (centres undefined)	4.432	-16.64	-12.66
COc1c(CNCc2ccccc2-n2ccnc2)c(C)nn1C	-0.302	-14	2.024

Repeated from the top, 7 entries:

{"compound": "CC(C(=O)N1CCOCC1)n1nc(-c2cccs2)cc(N)c1=O", "stereo": "centres undefined", "T. brucei": -10.31, "Leishmania in macrophages": -4.041, "Toxoplasma": 17.28}
{"compound": "Cc1cc(-c2nn(C)c(Cl)c2CN2CCOCC2CC(N)=O)no1", "stereo": "centres undefined", "T. brucei": -38.19, "Leishmania in macrophages": -3.064, "Toxoplasma": -6.672}
{"compound": "Cc1ccccc1CC(C)(C)NC(=O)CCOc1cccc(C(N)=O)c1", "T. brucei": -40.29, "Leishmania in macrophages": -1.373, "Toxoplasma": 4.371}
{"compound": "Cc1ccc(O)c(C(=O)N2CCOCC2c2c(C)n[nH]c2C)c1", "stereo": "centres undefined", "T. brucei": -3.958, "Leishmania in macrophages": 17.69, "Toxoplasma": -3.208}
{"compound": "CCOc1ccc(NC(=O)c2[nH]c(C)cc2C)cc1CO", "T. brucei": -31.43, "Leishmania in macrophages": -20.17, "Toxoplasma": 0.4315}
{"compound": "O=C(NCCc1nccs1)c1cn(CCN2CCNCC2)nn1", "T. brucei": -42.34, "Leishmania in macrophages": -6.215, "Toxoplasma": -1.34}
{"compound": "O=C(NCc1cccs1)C1CCN(c2cc(-n3ccnc3)ncn2)CC1", "T. brucei": 2.342, "Leishmania in macrophages": "9.061 & 12.24", "Toxoplasma": 0}